Test results taken from patent publication US20230248004A1, “NOVEL ORGANIC FUNGICIDE FOR USE AGAINST FUSARIUM WILT” (Ecolution.Ag LLC, priority 2020, published 2023).

Experiment: EBDC screen of banana flesh
Conditions: for EBDC content in banana flesh: as CS2, Zineb equivalent, MQL = 0.05 ppm; for EBDC Screen result in banana flesh: measured as CS2, Zineb equivalent, MDL = 0.03 ppm

ethylenebisdithiocarbamates [EBDC]
EBDC content in banana flesh (sample Banana #1 (regular)): MQL) | EBDC Screen result in banana flesh (sample Banana #1 (regular)): Detected | EBDC content in banana flesh (sample Banana #2 (regular)): MQL) | EBDC Screen result in banana flesh (sample Banana #2 (regular)): Detected | EBDC Screen result in banana flesh (sample Banana #3 (regular)): Not detected | EBDC Screen result in banana flesh (sample Banana (organic #1)): Not detected | EBDC Screen result in banana flesh (sample Banana (organic #2)): Not detected | EBDC Screen result in banana flesh (sample Banana (organic #3)): Not detected
